# Where a name gives a salt, the structure may show the parent alone. This is one part of the list. Single values are uncertain, as repeats are few or missing.
# Test system: UACC62P (parental melanoma line)
# Experiment: reduction in cell viability relative to untreated/vehicle; higher = more growth inhibition
# Conditions: 200 nM; 72 h
row,SMILES,reduction in cell viability
1,CC[C@@H]1/C=C(\C)C[C@H](C)C[C@H](OC)[C@H]2O[C@@](O)(C(=O)C(=O)N3CCCC[C@H]3C(=O)O[C@H](/C(C)=C/[C@@H]3CC[C@H](Cl)[C@H](OC)C3)[C@H](C)[C@@H](O)CC1=O)[C@H](C)C[C@@H]2OC [Pimecrolimus],< 0%
2,S=c1nc[nH]c2nc[nH]c12 [6-mercaptopurine],3.09%
3,C[C@@H]1CN(c2c(F)c(N)c3c(=O)c(C(=O)O)cn(C4CC4)c3c2F)C[C@H](C)N1 [Sparfloxacin],< 0%
4,OCCn1cc(-c2cnc3nnn(Cc4ccc5ncccc5c4)c3n2)cn1,1.54%
5,Cc1cncc2cccc(S(=O)(=O)N3CCCN(C(=O)CN)C[C@@H]3C)c12 [Glycyl-H-1152],< 0%
6,CC(O)(C#Cc1ccc2c(c1)N(c1nc(N)ncc1Cl)CC2)c1nccs1 (stereo not given),< 0%

# Test system: UACC62R (matched melanoma line resistant to BRAF inhibitors)
# Experiment: as above
# Conditions: 200 nM; 72 h
row,SMILES,reduction in cell viability
1,CCC[C@@H]1C[C@@H](C(=O)N[C@@H]([C@H]2O[C@H](SC)[C@H](O)[C@@H](O)[C@H]2O)[C@H](C)Cl)N(C)C1 [Clindamycin hydrochloride],< 0%
2,CCCCOc1ccc(CC(=O)NO)cc1 [Bufexamac],< 0%
3,CCCCCNC(=O)N1CCC(CN(Cc2ccc(Cl)cc2)Cc2ccc([N+](=O)[O-])s2)C1 (stereo not given),< 0%
4,NC(=O)c1cccc(-c2cccc(OC(=O)NC3CCCCC3)c2)c1,< 0%
5,COC1=C2C[C@@H](C)C[C@H](OC)[C@H](O)[C@@H](C)/C=C(\C)[C@H](OC(N)=O)[C@@H](OC)/C=C\C=C(/C)C(=O)NC(=CC1=O)C2=O [Geldanamycin],53.9%
6,Cn1cc(/C=C/C(=O)c2cccc(F)c2)cc1/C=C/C(=O)NO,< 0%
7,Clc1ccc(CCC(Cn2ccnc2)Sc2c(Cl)cccc2Cl)cc1 (stereo not given) [Butoconazole nitrate],< 0%
8,CCOc1ccc(Nc2nc(-c3c(C)nc4ccccn34)cs2)cc1,86.6%
9,Nc1nc(=O)n([C@H]2C[C@H](O)[C@@H](CO)O2)cc1F,63%
10,C=CC(=O)N1CCC[C@@H](n2nc(-c3ccc(Oc4ccccc4)cc3)c3c(N)ncnc32)C1,< 0%
11,O=C1CCCC(=O)C1C(=O)c1ccc(C(F)(F)F)cc1[N+](=O)[O-] [Nitisinone],< 0%
12,CCn1c(-c2nonc2N)nc2cnc(Oc3cccc(NC(=O)c4ccc(OCCN5CCOCC5)cc4)c3)cc21,< 0%
13,CC[C@H](CO)Nc1nc(NCc2ccccc2)c2ncn(C(C)C)c2n1 [Seliciclib],< 0%
14,CCOC(=O)N1CCN(/[N+]([O-])=N/Oc2cc(O/N=[N+](\[O-])N3CCN(C(=O)OCC)CC3)c([N+](=O)[O-])cc2[N+](=O)[O-])CC1 [Double JS-K],< 0%
15,CN(Cc1cc(Br)cc(Br)c1N)C1CCCCC1 [Bromhexine hydrochloride],< 0%
16,Fc1cc(-c2cccc3ncc(-c4cnn(C5CCNCC5)c4)nc23)cc(F)c1CN1CCOCC1,< 0%
17,COc1ccc(-n2nc(C(N)=O)c3c2C(=O)N(c2ccc(N4CCCCC4=O)cc2)CC3)cc1 [Apixaban],< 0%
18,CCCCC(F)(F)[C@@]1(O)CC[C@H]2[C@@H](CC(=O)[C@@H]2CCCCCCC(=O)O)O1 [Lubiprostone],< 0%
19,CC[C@]1(O)C[C@@H]2CN(CCc3c([nH]c4ccccc34)[C@@](C(=O)OC)(c3cc4c(cc3OC)N(C)[C@H]3[C@@](O)(C(=O)OC)[C@H](OC(C)=O)[C@]5(CC)C=CCN6CC[C@]43[C@@H]65)C2)C1 [Vinblastine],72.9%
20,CCN(CC)CCOc1ccc(C(=C(Cl)c2ccccc2)c2ccccc2)cc1 [Clomifene citrate],< 0%

row,SMILES,reduction in cell viability
1,CCN(CC)CCCCNc1nc2cc(Cl)c(Cl)cc2nc1-c1ccc(-c2cccs2)s1,< 0%
2,NNCCc1ccccc1 [Phenelzine],< 0%
3,C[C@H](NC(=O)Cc1cc(F)cc(F)c1)C(=O)N[C@@H]1C(=O)N(C)c2ccccc2-c2ccccc21,< 0%
4,CCN(CC)CCCC(C)Nc1nc(C)cc(Nc2ccc3nc(C)cc(N)c3c2)n1 (stereo not given),< 0%
5,Cc1cc2nc3c(=O)[nH]c(=O)nc-3n(C[C@H](O)[C@H](O)[C@H](O)CO)c2cc1C,< 0%
6,Nc1ccn([C@@H]2O[C@H](CO)[C@@H](O)[C@H]2O)c(=O)n1 [Cytidine],< 0%
7,O=S(=O)(O)CCS [Mesna],< 0%
8,CNC(=O)c1cc(Oc2ccc(NC(=O)Nc3ccc(Cl)c(C(F)(F)F)c3)cc2)ccn1 [Sorafenib],< 0%
9,O=C(c1ccc(Nc2nccc(-c3cc4ccccc4s3)n2)cc1)N1CCC(N2CCCC2)CC1,< 0%
10,COC(=O)N1CCN(Cc2cccc(NC(=O)Nc3ccc(C)nc3)c2F)CC1 [Omecamtiv mecarbil],< 0%
11,CCC1=C[C@@H]2CN(C1)Cc1c([nH]c3ccccc13)[C@@](C(=O)OC)(c1cc3c(cc1OC)N(C)[C@H]1[C@@](O)(C(=O)OC)[C@H](OC(C)=O)[C@]4(CC)C=CCN5CC[C@]31[C@@H]54)C2 [Vinorelbine tartrate],80.7%
12,CC(=O)Nc1cccc(-n2c(=O)n(C3CC3)c(=O)c3c(Nc4ccc(I)cc4F)n(C)c(=O)c(C)c32)c1 [Trametinib],33.3%
13,CC(C)=CC[C@@H](O)C1=CC(=O)c2c(O)ccc(O)c2C1=O [Shikonin],< 0%
14,CC[C@@H]1/C=C(\C)C[C@H](C)C[C@H](OC)[C@H]2O[C@@](O)(C(=O)C(=O)N3CCCC[C@H]3C(=O)O[C@H](/C(C)=C/[C@@H]3CC[C@H](Cl)[C@H](OC)C3)[C@H](C)[C@@H](O)CC1=O)[C@H](C)C[C@@H]2OC [Pimecrolimus],< 0%
15,S=c1nc[nH]c2nc[nH]c12 [6-mercaptopurine],< 0%
16,C[C@@H]1CN(c2c(F)c(N)c3c(=O)c(C(=O)O)cn(C4CC4)c3c2F)C[C@H](C)N1 [Sparfloxacin],< 0%
17,OCCn1cc(-c2cnc3nnn(Cc4ccc5ncccc5c4)c3n2)cn1,< 0%
18,Cc1cncc2cccc(S(=O)(=O)N3CCCN(C(=O)CN)C[C@@H]3C)c12 [Glycyl-H-1152],< 0%
19,CC(O)(C#Cc1ccc2c(c1)N(c1nc(N)ncc1Cl)CC2)c1nccs1 (stereo not given),< 0%

# From the supplement of paper PMC9015667
